{
  "source": "paper PMC10163288",
  "binders": {"B1": {"name": "il10ra_site1_sap_23_mot_HHH_b2_01705_af2_000000069_0001_44_57_H_._HHH_b1_00774_0001_0000100006_0000002_0_0001 (protein)", "chain": "SSSSDAAEFLVEQAIRAAELLIKAGDPEEARRAIEIAERTVERLGNEELLRKLEEVEEELNSSSS"}, "B2": {"name": "il10ra_site1_normal_mot_HHH_b1_00999_000000080_0001_41_55_H_._HHH_b2_04713_0001_0000400032_0000001_0 (protein)", "chain": "SSSSDEEEEEVKKLLERAEELYENGNPQEAIEVLLRALRLIFELQDPELLRELWKLVKEIGSSSS"}, "B3": {"name": "il10ra_site1_sap_21_mot_HHH_b2_08004_000000101_0001_1_17_H_._HHH_b1_06586_af2_0001_0002500045_0000001_0_0001 (protein)", "chain": "SSSSDVEEEVERLLEEAEELARRGNPEEAAELLREAVQFALRANDPELLQEVWEVVRRVAGSSSS"}, "B4": {"name": "il10ra_site1_normal_mot_HHH_b2_07245_000000008_0001_1_20_H_._HHH_b1_04343_af2_0001_0000300016_0000001_0 (protein)", "chain": "SSSDREVIHRALEVAREALRLAFRLSDRETLEELWKLVKEIAEKGDPELLEELEELLEELRSSSS"}, "B5": {"name": "il10ra_site1_normal_mot_HHH_b2_03038_000000109_0001_1_20_H_._HHH_b2_06173_0001_0000600025_0000002_0 (protein)", "chain": "SSSSEEAYEISRKANEEAVELEEEGDPEKAEEVVEEALERVERLNNFSAFFALEHLLRLIRSSSS"}, "B6": {"name": "il10ra_site1_normal_mot_HHH_b1_03859_af2_000000004_0001_44_57_H_._HHH_b2_05934_af2_0001_0000200016_0000001_0_af2pred_dldesign_0_af2pred (protein)", "chain": "SSSSSSPKAAAESALAATEYLKKLNDKENFEKAYNYAVALAKALGDEETLKKLEELKAELSSSSS"}, "B7": {"name": "il10ra_site1_normal_mot_8756ee2cf497b5429c717dfc0c0bcfd6_0001_000000186_0001_1_13_H_._HHH_b1_04220_0001_0000100017_0000001_0 (protein)", "chain": "SSSSDEEVERIIELIREIAELEREGDDEEARELLEEAKRLAEEINNDVLLWQIEYLARQVESSSS"}, "B8": {"name": "il10ra_site1_normal_mot_HHH_b2_03764_000000138_0001_1_20_H_._HHH_b2_04981_0001_0000100005_0000002_0 (protein)", "chain": "SSSSDEEFEEVYRLLERASELDQEGDKEKAEELVEEAIELAREGGNEVLTWSAEYLLRMIRSSSS"}, "B9": {"name": "il10ra_site1_sap_18_mot_HHH_b1_01975_000000257_0001_1_17_H_._HHH_b1_07669_af2_0001_0000400016_0000002_0_0001 (protein)", "chain": "SSSSSAVERSLKHMLKAAKELLERGDPEAAEIALHFAAALAEATNDHELLEEIRELLEEVTSSSS"}, "B10": {"name": "il10ra_site1_sap_18_mot_HHH_b2_00033_000000036_0001_41_54_H_._HHH_b1_02211_0001_0000500019_0000001_0_0001 (protein)", "chain": "SSSSSEEKEELEELLERIEEAAREGDEELVVRLTLEASRLALRSGDQELLREIWELFRRLLSSSS"}, "B11": {"name": "il10ra_site1_normal_mot_HHH_b2_02337_000000026_0001_38_52_H_._HHH_b2_00311_0001_0000300022_0000001_0 (protein)", "chain": "SSSSSSDLEELLEELEQLLEEGDEERFLQVAQEIVRHAIRNNDPEVLRAVWELVQRLASSSSSSS"}, "B12": {"name": "il10ra_site1_normal_mot_HHH_b1_04940_000000219_0001_1_18_H_._HHH_b2_04099_0001_0000100003_0000002_0_af2pred_0001 (protein)", "chain": "SSSSSSSEEHVRRLLEAAKSLEDPELVELALRLARQLAERLNDDELQRLVEEVEEELKSSSSSSS"}, "B13": {"name": "il10ra_site1_sap_16_mot_1cde5897893f3d1588f92be3b001cdf2_0001_af2_000000130_0001_54_65_H_._HHH_b2_02704_0001_0000100006_0000001_0_0001 (protein)", "chain": "SSSSDEDEERVEELLEEAKELAEEGDPEEASQVLLEALKIAWESNNPELLQLVFEVVKRLGSSSS"}, "B14": {"name": "il10ra_site1_sap_23_mot_HHH_b1_08411_af2_000000053_0001_1_20_H_._HHH_b2_00546_af2_0001_0001000010_0000001_0_0001 (protein)", "chain": "SSSSSDEEREEAEELLEEAKHIDDERERVELLARALEIATKLRDKELARKVDRVAIELYWSSSSS"}, "B15": {"name": "il10ra_site1_sap_13_mot_HHH_b1_06789_af2_000000041_0001_1_20_H_._HHH_b2_02303_af2_0001_0000100003_0000001_0_0001 (protein)", "chain": "SSSSSSDEEEVEELLEELKQITDEEEFSELALEILRLIVEIGDAELLRELWRIIVETISSSSSSS"}, "B16": {"name": "il10ra_site1_sap_21_mot_HHH_b2_02736_000000092_0001_22_38_H_._HHH_b2_06050_af2_0001_0001100057_0000001_0_0001 (protein)", "chain": "SSSSDQEEELAEALVRIIRQALEMGDKERARMMLLSLEMLAEDLNDPELRELREELEELLNSSSS"}, "B17": {"name": "il10ra_site1_sap_24_mot_HHH_b1_07463_af2_000000297_0001_37_56_H_._HHH_b2_07128_af2_0001_0000200014_0000001_0_0001 (protein)", "chain": "SSSSSEEAEELYRLLREVARLDHDGDPEEARRLVEEALELAEELNDPIFARQFEFLLRLINSSSS"}, "B18": {"name": "il10ra_site1_normal_mot_HHH_b1_06363_000000103_0001_21_38_H_._HHH_b1_08068_af2_0001_0000400007_0000001_0 (protein)", "chain": "SSSSSDEEEEVKELLEEAEKIEDHEEAWQVLVEAYFLADQLRDPELRELVTEVARRLAGSSSSSS"}, "B19": {"name": "il10ra_site1_normal_mot_HHH_b2_03220_af2_000000223_0001_23_40_H_._HHH_b1_05632_af2_0001_0000200012_0000001_0 (protein)", "chain": "SSSNEAERVWRLAREALELLAHGDHEEAEELVREAIELAEEANSRVLEFNLRQLLRQIERLSSSS"}},
  "note": "Some of the results follow.",
  "data": [
    {"target": "il10ra, Q13651", "assay": "yeast display titration", "values": [
      {"binder": "B1", "apparent Kd": "inactive: no binding seen"},
      {"binder": "B2", "apparent Kd": "inactive: no binding seen"},
      {"binder": "B3", "apparent Kd": "inactive: no binding seen"},
      {"binder": "B4", "apparent Kd": "inactive: > 0.998 µM"},
      {"binder": "B5", "apparent Kd": "inactive: no binding seen"},
      {"binder": "B6", "apparent Kd": "inactive: no binding seen"},
      {"binder": "B7", "apparent Kd": "inactive: no binding seen"},
      {"binder": "B8", "apparent Kd": "inactive: no binding seen"},
      {"binder": "B9", "apparent Kd": "inactive: no binding seen"},
      {"binder": "B10", "apparent Kd": "inactive: no binding seen"},
      {"binder": "B11", "apparent Kd": "inactive: no binding seen"},
      {"binder": "B12", "apparent Kd": "inactive: no binding seen"},
      {"binder": "B13", "apparent Kd": "inactive: no binding seen"},
      {"binder": "B14", "apparent Kd": "inactive: no binding seen"},
      {"binder": "B15", "apparent Kd": "inactive: no binding seen"},
      {"binder": "B16", "apparent Kd": "inactive: no binding seen"},
      {"binder": "B17", "apparent Kd": "inactive: no binding seen"},
      {"binder": "B18", "apparent Kd": "inactive: no binding seen"},
      {"binder": "B19", "apparent Kd": "inactive: no binding seen"}
    ]}
  ]
}
